{"source": "PubChem BioAssay AID686943 | Drosophila RNAi Screening Center | 2013", "purpose": "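Search across the genome for regulators of signalling from receptor tyrosine kinase to ERK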 (primary screen)", "cells": "Drosophila S2R+ haemocyte-like cells expressing YFP-tagged ERK (Rolled)", "reagent": "long dsRNA against Drosophila genes", "challenge": "insulin stimulation versus unstimulated cells; dose and duration not given", "measured": "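Per-plate z-scores of phospho-ERK immunostaining normalised to YFP-tagged ERK, measured with and without insulin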", "direction": "replicate 1, z-score of dpERK with insulin: higher = more active ERK per ERK-YFP after insulin", "note": "The deposit covers about 23,000 reagents; below is an unselected part of those with a known target gene and a result. 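Extra replicates exist only for a retested subset of genes; insulin dose and duration not given; both raised and lowered dpERK matter.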 The numbers tell different reagents against one gene apart. Names joined by + are all predicted targets of the reagent. Not all columns of the deposit are shown. Reagent sequences are not shown. Not stated in the record: the amount of reagent, the time to read-out."}
{"Target gene": "Epac (GeneID 35588)", "reagent": 1, "replicate 1, z-score of dpERK with insulin": -0.7}
{"Target gene": "Epac (GeneID 35588)", "reagent": 2, "replicate 1, z-score of dpERK with insulin": 0.33}
{"Target gene": "Epac (GeneID 35588)", "reagent": 3, "replicate 1, z-score of dpERK with insulin": 0.88}
{"Target gene": "CG8858 (GeneID 36319)", "reagent": 1, "replicate 1, z-score of dpERK with insulin": 0.81}
{"Target gene": "CG9592 (GeneID 39585)", "reagent": 1, "replicate 1, z-score of dpERK with insulin": -0.86}
{"Target gene": "MTPAP (GeneID 31081)", "reagent": 1, "replicate 1, z-score of dpERK with insulin": -0.12}
{"Target gene": "nau (GeneID 42799)", "reagent": 1, "replicate 1, z-score of dpERK with insulin": 0.2}
{"Target gene": "Oatp33Ea (GeneID 34660)", "reagent": 1, "replicate 1, z-score of dpERK with insulin": -0.65}
{"Target gene": "Pex13 (GeneID 36462)", "reagent": 1, "replicate 1, z-score of dpERK with insulin": 0.16}
{"Target gene": "egl (GeneID 37757)", "reagent": 1, "replicate 1, z-score of dpERK with insulin": 0.93}
{"Target gene": "mTTF (GeneID 34837)", "reagent": 1, "replicate 1, z-score of dpERK with insulin": -0.04}
{"Target gene": "l(2)k09022 (GeneID 33960)", "reagent": 1, "replicate 1, z-score of dpERK with insulin": -0.52}
{"Target gene": "CG7377 (GeneID 2768978)", "reagent": 1, "replicate 1, z-score of dpERK with insulin": -0.95}
{"Target gene": "CG33095 (GeneID 43012)", "reagent": 1, "replicate 1, z-score of dpERK with insulin": -1.11}
{"Target gene": "Cyp6a23 (GeneID 36661)", "reagent": 1, "replicate 1, z-score of dpERK with insulin": 0.9}
{"Target gene": "CG31871 (GeneID 34463)", "reagent": 1, "replicate 1, z-score of dpERK with insulin": 0.35}
{"Target gene": "CG31871 (GeneID 34463)", "reagent": 2, "replicate 1, z-score of dpERK with insulin": 0.61}

Already shown: entries from further up.
{"Target gene": "CG7377 (GeneID 2768978)", "reagent": 1, "replicate 1, z-score of dpERK with insulin": -0.95}
{"Target gene": "CG33095 (GeneID 43012)", "reagent": 1, "replicate 1, z-score of dpERK with insulin": -1.11}
{"Target gene": "Cyp6a23 (GeneID 36661)", "reagent": 1, "replicate 1, z-score of dpERK with insulin": 0.9}
{"Target gene": "CG31871 (GeneID 34463)", "reagent": 1, "replicate 1, z-score of dpERK with insulin": 0.35}
{"Target gene": "CG31871 (GeneID 34463)", "reagent": 2, "replicate 1, z-score of dpERK with insulin": 0.61}

Continued.
{"Target gene": "Kaz1-ORFB (GeneID 3772691)", "reagent": 1, "replicate 1, z-score of dpERK with insulin": 0.23}
{"Target gene": "PIG-N (GeneID 36049)", "reagent": 1, "replicate 1, z-score of dpERK with insulin": 0.33}
{"Target gene": "CG31933 (GeneID 326176)", "reagent": 1, "replicate 1, z-score of dpERK with insulin": 1.05}
{"Target gene": "sgll (GeneID 40925)", "reagent": 1, "replicate 1, z-score of dpERK with insulin": -0.39}
{"Target gene": "CG13392 (GeneID 34157)", "reagent": 1, "replicate 1, z-score of dpERK with insulin": -0.19}
{"Target gene": "CG17159 + CG17162", "reagent": 1, "replicate 1, z-score of dpERK with insulin": 1.29}
{"Target gene": "CG17159 + CG17162", "reagent": 2, "replicate 1, z-score of dpERK with insulin": 0.26}
{"Target gene": "Lamtor5 (GeneID 31137)", "reagent": 1, "replicate 1, z-score of dpERK with insulin": -1.37}
{"Target gene": "Yip1d1 (GeneID 34696)", "reagent": 1, "replicate 1, z-score of dpERK with insulin": 0.81}
{"Target gene": "CG3494 (GeneID 37903)", "reagent": 1, "replicate 1, z-score of dpERK with insulin": -0.15}
{"Target gene": "Adgf-C (GeneID 41680)", "reagent": 1, "replicate 1, z-score of dpERK with insulin": -1.32}
{"Target gene": "CG13404 (GeneID 32382)", "reagent": 1, "replicate 1, z-score of dpERK with insulin": 0.32}
{"Target gene": "nAChRbeta2 (GeneID 42920)", "reagent": 1, "replicate 1, z-score of dpERK with insulin": 0.29}
{"Target gene": "CG13226 (GeneID 36184)", "reagent": 1, "replicate 1, z-score of dpERK with insulin": -0.01}
